# Screening data, single-dose tests

Source: ChEMBL document CHEMBL3988442, “University of Dundee, Small-Polar-MMV Screening Library” (2021).

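Whole-parasite assay of Trypanosoma brucei over 72 hours; the read-out is not stated. Concentration: 30 µM. Direction is inferred from retests: higher values go with stronger inhibition. Values scatter widely below zero; nearly all retest evidence comes from the higher of the two concentrations used. About 64,000 compounds were tested under these conditions; 1.5% (about 940) showed 50% or more at least once.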

Results are given as percent effect.
The record does not define 0% and 100%; most values in the screen are far below 50% and negative numbers occur (in some assays of this library far below -100).
The compounds are a random part of those screened.

structure,Percent Effect
Cc1ccc(N2CC3(COCCN(Cc4cnn(C)c4)C3)OCC2=O)s1.O=C(O)C(F)(F)F (stereo not shown),-37.38%
[H][C@@]12CCN(Cc3cccc(C)n3)[C@@]1([H])CCN2C(=O)c1cnoc1C,12.1%
CO[C@@H]1CCN(S(=O)(=O)c2cn(C)cn2)[C@H]1Cc1ccncc1.O=C(O)C(F)(F)F,-17.06%
O=C1CCCCN1CSc1nnnn1-c1ccc(Cl)cc1,-0.3446%
Cl.Cn1nc(C2CCN(C(=O)CN3CCCCC3)CC2)c2cccnc21,6.777%
CCN1CCN(c2ccc(CNC(=O)c3ccccc3F)cn2)CC1,12.21%
c1cncc(CN2CC(Cc3nccc4cc[nH]c34)C2)c1,-19%
COCC1c2nnn(CC3CC3)c2CCN1C(=O)c1cccc(F)c1 (stereo not shown),39.56%
COCc1cccc(NC(=O)N(C)Cc2ncc(C)c(OC)c2C)c1,21.67%
COCCN1CCC(c2nc3ccc(-c4ccccc4)cn3n2)CC1.O=C(O)C(F)(F)F,-4.865%
O=C(CCn1cc(Cl)cn1)Nc1ncccn1,19.6%
O=C(NCCn1ccnc1)c1ccn(-c2ccc(F)cc2)n1,4.476%
O=C(O)C(F)(F)F.[H][C@@]12CCN(Cc3ccco3)C[C@@]1([H])[C@H](C(=O)NCC1CC1)CCO2,-71.39%
CNc1cc(C2CCCN2Cc2ccccc2OCC(=O)O)ccn1 (stereo not shown),9.847%
O=c1n(CC2CC2)nc(C2CCNCC2)n1Cc1ccccc1,-14.02%
COC(=O)CCCN(C)C(c1cccnc1)c1ccc(F)cc1F (stereo not shown),-28.69%
COCCC(=O)N1CCC(c2cncc(Oc3cccnc3)n2)CC1,-15.4%
Cc1cscc1C(=O)NC1CC(=O)N(C(C)C)C1=O (stereo not shown),16.19%
COCC1CCN(C(C(=O)O)c2c(F)cccc2OC(C)C)CC1 (stereo not shown),-20.77%
CCc1csc(CNC2CCN(c3ccc(C)cc3)CC2)n1,-5.875%
CN(CC(N)=O)CC1(c2ccc(Br)cc2)CC1,-6.513%
O=C(O)C(F)(F)F.O=C(O)C(F)(F)F.c1cc(CN2CCC3(CCOCC3COCC3CC3)CC2)ccn1 (stereo not shown),-15.5%
CSCCC(=O)N1CCC(Oc2cc(C)ccc2F)(C(=O)O)CC1,-48.1%
NCCn1nc(C2CCN(C(=O)CC3CCCCC3)C2)c2nccnc21 (stereo not shown),29.28%
COC1CCN(c2ccc(NC(=O)Cn3cccc3)cc2)CC1,-5.16%
CCc1nc(C)c(C(=O)N[C@@H]2c3ccccc3C[C@@H]2O)o1,-49.33%
O=C(c1cnc(-c2cnccn2)s1)N1CCCC(n2cccn2)C1 (stereo not shown),10.8%
CNS(=O)(=O)c1ccc(CNC(=O)Nc2cc(C)on2)s1,-16.59%
CC(CNC(=O)CCc1ccco1)N1CCc2sccc2C1 (stereo not shown),-38.41%
CNC(=O)C1CN(C(C)C)CCN1c1nc(C)cc(C)n1 (stereo not shown),-12.53%
COCCN1CCC12CCN(C(=O)c1ccsc1)CC2.O=C(O)C(F)(F)F,-46.37%
O=C(Nc1ccc(F)cc1F)NC1(CO)CCOCC1,-49.32%
O=C1CC2(CCN(CCCO)CC2)CN1Cc1ccc(F)c(F)c1,-5.294%
Cc1nc(C)n(CC2CN(CCCc3ccccc3)CCO2)n1 (stereo not shown),-47.68%
CN1C(=O)C(C)(C)COc2cc(NS(=O)(=O)Cc3ccccc3)ccc21,-67.47%
CC(=O)N1CCC(NS(=O)(=O)c2cccnc2)CC1,-19.11%
CCOC[C@@H]1CCC[C@]12CN(S(=O)(=O)c1cn(C)cn1)CCO2,-4.853%
Cn1ccc(N2CCCC(NC(=O)c3ccsc3)C2=O)n1 (stereo not shown),-35.77%
COc1cccc(CNC(=O)C(C)N2CC(n3nc(C)cc3C)C2)c1 (stereo not shown),-10.72%
Nc1nc(CCC(=O)N2C[C@H](c3ccccc3)[C@@H](N)C2)cs1,-22.04%
Cc1cccc(=O)n1CCC(=O)N(C)Cc1cccc2ncccc12,-21.81%
Cc1ccccc1C(C(=O)N1CCN(C(=O)c2ccc[nH]2)CC1)N(C)C (stereo not shown),-29.65%
COc1cccc(N2CCC(CNc3cc(C)nc4ncnn34)C2)c1 (stereo not shown),-742.4%
Cc1ccc(CNc2ccn(CCc3ccncc3)n2)s1,13.26%
CCO[C@@H]1CO[C@@]2(CCCN(C(=O)c3ccc(OC)c(F)c3)C2)C1,-2.911%
O=C(Cc1cccnc1)N1CCCC(c2cc(C(F)(F)F)[nH]n2)C1 (stereo not shown),-52.92%
CCN(CC1CCOC1)C(=O)c1cccnc1N1CCOCC1 (stereo not shown),32.44%
CN(CCc1ccccc1)Cc1c(C2CC2)[nH]c2ncccc12,-20.83%
Cc1cc(N2CCC(N(C)C(=O)c3ccccc3)CC2)nc(C)n1,-43.77%
Cn1c(=O)n(C)c2nc(Cl)c(CC(=O)c3ccccc3)n2c1=O,-25.92%
COCCNC(=O)c1cccnc1Oc1ccc(Cl)cc1,5.706%
OC(COCc1ccccc1)CN1CCC(Cn2cccn2)CC1 (stereo not shown),-21.88%
CC(C)n1cc(C(=O)NCCc2cn3ccsc3n2)cn1,6.798%
Cc1ccc(Cc2cnc(C3CCNCC3)cn2)cc1.Cl,-22.29%
COc1ccc(CC(=O)NC2(C#N)CCOCC2)c(Cl)c1,-22.93%
Cc1ccc(C#N)c(N2CCC(c3nccn3CCN(C)C)CC2)n1,57.26%
CNS(=O)(=O)CC1CCCN1C(=O)c1ccc(C)c(C)c1 (stereo not shown),-25.87%
CC(C)c1nn(CC(=O)N2CCCC2)c(=O)c2c1cnn2C(C)(C)C,-10.66%
CCS(=O)(=O)N1CCc2onc(CNc3ncccn3)c2C1,-38.11%
O=C(CCS(=O)(=O)c1ccccc1)NC1CCOC2(CCOCC2)C1 (stereo not shown),-11.28%
CNc1ccccc1C(=O)N(C)CCc1ccccc1,2.45%
CC(C)CC(=O)N1CC(=O)c2sc(Nc3ccc(F)cc3F)nc2C1,-18.5%
O=C(O)C(F)(F)F.[H][C@@]12OCCN(C(=O)c3ccc(C)nc3)[C@@]1([H])CC[C@H]2OC,-21.3%
CC1(C)CN(CC(O)C(C)(C)C)C(=O)CN(C(=O)c2ccccc2)C1 (stereo not shown),-5.204%
CN(CCOc1ccc(Br)cc1)Cc1cscn1,-70.86%
CC(C)c1cncnc1N1CC[C@H](N2CCOCC2)[C@H](CCCO)C1,8.987%
Oc1cc(C2CCCCN2Cc2cccs2)nc(-c2ccccn2)n1 (stereo not shown),99.61%
CCCNC(=O)N1CCC(c2nnc(Cn3cccn3)n2C2CC2)CC1,-22.52%
CCc1nc2n(n1)CC(NCc1cnc(-c3ccccc3)nc1)CC2 (stereo not shown),-8.123%
Cn1nc2c(cc1=O)CN(Cc1coc(-c3cccs3)n1)CC2,-2.478%
N#Cc1cc(Cl)ccc1N1CCN(C(=O)C2CCC2)CC1,81.04%
Cc1cc(C)c2nc(CNC3CCNC3=O)cc(O)c2c1 (stereo not shown),24.23%
CC(=O)N1CCc2ccccc2C1CC(=O)NCc1nnc(C)o1 (stereo not shown),-33.07%
CC1CCCN(c2ncc(C(=O)NCc3ccc(F)c(Cl)c3)c(N)n2)C1 (stereo not shown),-13.21%
CN(C)Cc1csc(-c2nccn2CCc2cccnc2)c1,13.01%
Cc1ccc2nc(NCCN3CCOCC3)n(C)c(=O)c2c1,29.18%
CC(C)c1cc(NCC2(CO)CCCC2)ncn1,-1.054%
COC(=O)c1sccc1S(=O)(=O)NCC1(O)CCOc2ccccc21 (stereo not shown),-55.05%
CCc1ccc(C2CCCCCN2C(=O)CNC(=O)C2CC2)o1 (stereo not shown),-27.86%
CC(C)(NCC(=O)NCC(F)(F)F)c1ccc2c(c1)OCCO2,-22.63%
O=C(C1CC(=O)N(c2ccccc2Br)C1)N1CCN(CC(F)(F)F)CC1 (stereo not shown),-16.65%
COc1ccc(OCc2nc(C(=O)N3CC(O)C3)co2)cc1,-3.809%
CN(Cc1cnn(C)c1)C(=O)CCS(=O)(=O)c1ccc2c(c1)OCCO2,-35.28%
CCc1cn[nH]c1C1CCCN(C(=O)c2cc(C#N)c(=O)[nH]c2C)C1 (stereo not shown),18.69%
CCc1cc(N2CCC(NCCSc3nnnn3C)CC2)nc(C)n1,-62.88%
CC(=O)N(Cc1ccoc1)C1CCCCC1,-1.188%
O=C(O)C(F)(F)F.[H][C@]12CCN(C(=O)CC)CC[C@@]1([H])S(=O)(=O)CCN2Cc1cccc(C)n1,-37.62%
[H][C@]12CCCCN1CCC[C@H]2CN(C)Cc1ccccc1-n1cccn1,-30.58%
COC(=O)c1ccc(CN(C(C)C)C(C)C)o1.Cl,-7.962%
Cc1ccc(C)c(NC(=O)c2n[nH]c(-n3cnnc3)n2)c1,37.94%
CCNC(=O)[C@@H]1C[C@@H](n2cc(CN(CC)CC)nn2)CN1,-6.966%
CN1CCCC(CCC(=O)N2CCc3sc(C(=O)N(C)C)cc3C2)C1 (stereo not shown),-91.75%
C=C(C)CNC(=O)C1CCC(=O)N(C2CCCC2)C1 (stereo not shown),0.7399%
COc1ccc(CNCc2cc(Br)c3c(c2)OCO3)cc1,2.14%
[H][C@@]12CN(CC(=O)N(C)C)C[C@]1([H])OCCN2c1ncc(F)cn1,-30.09%

For reference, 9 entries once more:

structure	Percent Effect
COc1ccc(CNCc2cc(Br)c3c(c2)OCO3)cc1	2.14%
Nc1nc(CCC(=O)N2C[C@H](c3ccccc3)[C@@H](N)C2)cs1	-22.04%
OC(COCc1ccccc1)CN1CCC(Cn2cccn2)CC1 (stereo not shown)	-21.88%
COCc1cccc(NC(=O)N(C)Cc2ncc(C)c(OC)c2C)c1	21.67%
O=C(c1cnc(-c2cnccn2)s1)N1CCCC(n2cccn2)C1 (stereo not shown)	10.8%
O=C1CCCCN1CSc1nnnn1-c1ccc(Cl)cc1	-0.3446%
COCCNC(=O)c1cccnc1Oc1ccc(Cl)cc1	5.706%
CCc1ccc(C2CCCCCN2C(=O)CNC(=O)C2CC2)o1 (stereo not shown)	-27.86%
O=C(CCn1cc(Cl)cn1)Nc1ncccn1	19.6%